# Out of some 220,000 compounds screened, about 2,400 (1.1%) were called active. The shares of active, inactive and inconclusive entries below differ from those in the screen. The call rests on the fitted dose curve; in most records, active means well fitted inhibition curve with a large enough effect; inconclusive means small, poorly fitted or top-dose-only effect, or effect the other way; inactive means no such curve, though single readings can be large or run the other way. Where the call is inconclusive, the potency comes from a doubtful curve fit.
# Test: qHTS Multiplex Assay to Identify Dual Action Probes in a Cell Model of Huntington: Aggregate Formation (GFP); further: nearly all actives have a fitted effect of over 60% in size
# Conditions: PC12 HttQ103-GFP aggregates, Acumen cytometry, 40 h; activity change, negative = inhibition: at 46.1 µM (top of the series) unless noted
# Summary of the method: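 Compounds (qHTS titration) were added to PC12 cells expressing an ecdysone-driven HTT exon 1 Q103–GFP fusion after induction with 100 nM tebufenozide. Aggregate formation was measured as GFP objects in cell lysates.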
# On the % scale 0 is the no-effect control and ±100 the full control effect; potency means the concentration at half of the fitted maximal effect.
SMILES,"activity change, negative = inhibition",Potency
Cc1cc(C)c2c(N)c(S(=O)(=O)Cc3ccccc3)sc2n1,inactive: -2.53% [at 9.22 µM],
CC1=CC(=Nc2c(C)n(C)n(-c3ccccc3)c2=O)C=C(C)C1=O,,"inconclusive: 3.98 µM [activator, full curve, poor fit]"
O=C(CSc1nnc2ccc(-c3ccncc3)nn12)c1cccs1,,"inconclusive: 31.6 µM [inhibitor, single point]"
CCOC(=O)C1CCCN(C(=O)c2cc3cc(Br)ccc3oc2=O)C1 (stereo not given),inactive: -9.1%,
CCn1nc(C)c(CN2CCN(Cc3cccc(OC)c3)C(CCO)C2)c1C (stereo not given),inactive: 8.33% [at 9.22 µM],
Cn1cnnc1SCC(=O)Nc1ccc2nc(SCc3ccccc3)sc2c1,,"inconclusive: 15.8 µM [inhibitor, single point]"
O=C(Nc1nnc(-c2ccc(Cl)cc2)o1)c1ccccc1Br,,"inconclusive: 17.8 µM [inhibitor, single point]"
COc1cc(/C=N/NC(=O)c2ccccc2)ccc1OS(=O)(=O)c1ccccc1,,"inconclusive: 35.5 µM [inhibitor, single point]"
CCN(CC)CCNc1ccc(CO)c2sc3ccccc3c(=O)c12,,active: 12.6 µM
CCc1cc2c(C)ccc(C)c2nc1SCC(=O)Nc1c[nH]c(=O)[nH]c1=O,,"inconclusive: 35.5 µM [inhibitor, single point]"
COc1ccc(CN=C2NC(=O)CC(C(=O)Nc3ccc(F)cc3)S2)cc1 (stereo not given),,"inconclusive: 0.562 µM [activator, full curve, poor fit]"
Cc1nnc(N(C)C(=O)Cc2ccc3c(c2)OCO3)s1,inactive: -17.1%,
Cc1ccc(S(=O)(=O)/N=C2/NC(=O)/C(=C/c3cccnc3)S2)cc1,inactive: 21.1%,
CC1Cc2cc(-c3csc(NC(=O)Cc4cccs4)n3)ccc2N1S(C)(=O)=O (stereo not given),,"inconclusive: 17.8 µM [inhibitor, partial curve]"
Cc1ccc(S(=O)(=O)N(C)CC(O)Cn2c3ccccc3c3ccccc32)cc1 (stereo not given),,"inconclusive: 17.8 µM [inhibitor, single point]"
N#Cc1nc(-c2ccc(OCc3ccccc3)cc2)oc1NCCCn1ccnc1,,"inconclusive: 25.1 µM [inhibitor, single point]"
Cc1c(-c2ccccc2)sc(N)c1C(=O)N1CCOCC1,inactive: 0.185%,
CCOC(=O)N1CCN(S(=O)(=O)c2ccc(C(=O)NNc3nc4cc(C)cc(C)c4s3)cc2)CC1,,"inconclusive: 5.01 µM [inhibitor, full curve]"

SMILES,"activity change, negative = inhibition",Potency
Cc1ccc(C)c(SCC(=O)OCC(=O)N2CC(C)OC(C)C2)c1 (stereo not given),inactive: 32.2%,
Cn1nc(-c2ccccn2)nc2c(=O)n(C)c(=O)nc1-2,,"inconclusive: 3.55 µM [inhibitor, partial curve]"
O=C(c1ccc([N+](=O)[O-])cc1)N1CCCC1,inactive: 7.02% [at 9.22 µM],
CCCCNC(=O)c1cnc2n(c1=O)CCS2,inactive: -13.4%,
Cc1cc(=O)oc2cc(OCC(=O)Nc3ccc(S(=O)(=O)N(C)C)cc3)ccc12,,"inconclusive: 11.2 µM [inhibitor, partial curve, poor fit]"
Cc1ccc(-c2cc(C(=O)N3CCCc4ccccc43)c3ccccc3n2)cc1,,"inconclusive: 35.5 µM [inhibitor, single point]"
CC1(C)CC(=O)c2c(O)cc(OCc3ccc(Br)cc3)cc2O1,,"inconclusive: 35.5 µM [inhibitor, single point]"
O=C(O)c1ccccc1C(=O)N1CCN(c2cccc(Cl)c2)CC1,inactive: -6.47%,
CCCCOc1ccc(C(=O)NNC(=S)NC(=O)CC)cc1,,"inconclusive: 7.94 µM [inhibitor, partial curve]"
FC(F)(F)c1nnc(-c2ccccc2)nc1Sc1ccccc1,,"inconclusive: 20 µM [inhibitor, single point]"
COc1ccc(C(CCN(Cc2ccc(OC)c(OC)c2)C(=O)CCl)c2ccccc2)cc1 (stereo not given),,"inconclusive: 35.5 µM [inhibitor, single point]"
O=C(c1cccs1)N(c1ccc(Br)cc1)C1C=CS(=O)(=O)C1 (stereo not given),inactive: 5.23%,
O=C(CC1CC2CCC1C2)OCC(=O)c1c[nH]c2ccccc12 (stereo not given),,"inconclusive: 2.82 µM [activator, partial curve]"
CCN(c1cccc(C(F)(F)F)c1)S(=O)(=O)c1ccc2c(c1)CCN2C(=O)C1CC1,,"inconclusive: 12.6 µM [inhibitor, single point]"
CC/C(=N\Nc1ccc([N+](=O)[O-])cc1)c1ccccc1,,"inconclusive: 35.5 µM [inhibitor, single point]"
NC(=S)N/N=C/c1cc([N+](=O)[O-])ccc1Cl,,"inconclusive: 11.2 µM [inhibitor, single point]"
O=c1cc2c(nn1Cc1ccc(Cl)cc1Cl)-c1ccccc1CC2,,"inconclusive: 12.6 µM [inhibitor, partial curve]"

# Some of the entries above, reformatted:
SMILES	activity change, negative = inhibition	Potency
CCCCNC(=O)c1cnc2n(c1=O)CCS2	inactive: -13.4%	
Cc1cc(=O)oc2cc(OCC(=O)Nc3ccc(S(=O)(=O)N(C)C)cc3)ccc12		inconclusive: 11.2 µM [inhibitor, partial curve, poor fit]
Cc1ccc(-c2cc(C(=O)N3CCCc4ccccc43)c3ccccc3n2)cc1		inconclusive: 35.5 µM [inhibitor, single point]
O=C(O)c1ccccc1C(=O)N1CCN(c2cccc(Cl)c2)CC1	inactive: -6.47%	
CCCCOc1ccc(C(=O)NNC(=S)NC(=O)CC)cc1		inconclusive: 7.94 µM [inhibitor, partial curve]
COc1ccc(C(CCN(Cc2ccc(OC)c(OC)c2)C(=O)CCl)c2ccccc2)cc1 (stereo not given)		inconclusive: 35.5 µM [inhibitor, single point]
CC/C(=N\Nc1ccc([N+](=O)[O-])cc1)c1ccccc1		inconclusive: 35.5 µM [inhibitor, single point]
NC(=S)N/N=C/c1cc([N+](=O)[O-])ccc1Cl		inconclusive: 11.2 µM [inhibitor, single point]

# Reference: PubChem BioAssay AID1688 (National Center for Advancing Translational Sciences (NCATS), 2009)
